Experiment: general procedure: Boc solid-phase peptide synthesis; benzhydrylamino-polystyrene resin; diisopropylcarbodiimide / HBt
Settings: whole synthesis, scale 0.5 mmol

What does the source list for “N-Ac-D-Nal(2)-D-pCl-Phe-D-Pal(3)-Ser-hArg(CH2 CF3)2 -D-Tyr-Leu-hArg(CH2 CF3)2 -Pro-D-Ala-NH2”?
crude mass (acetate salt): 0.5 g; isolated mass (acetate salt (crude)): 64 mg
